A short description of the data set: general procedure: Fmoc solid-phase peptide synthesis; Fmoc-PAL-PEG-PS or Fmoc-L-Arg(Pbf)-PEG-PS; HCTU/DIPEA (continuous flow) or HBTU/DIPEA (microwave). The conditions noted are these: purification step, relative to crude material after resin cleavage.

For RAAPYGVRLSGREFIRAVIFTSR-NH2, the step yield entry is listed as “˜50%”.
